Assay results from patent US20150306232A1 (BRANDEIS UNIVERSITY, priority 2012, published 2015).
Non-standard residues stand in square brackets, D forms with d. *: point of attachment. Paclitaxel(2'-O-succinyl) = CC(=O)O[C@H]1C(=O)[C@@]2(C)[C@H]([C@H](OC(=O)c3ccccc3)[C@]3(O)C[C@H](OC(=O)[C@H](OC(=O)CCC(=O)*)[C@@H](NC(=O)c4ccccc4)c4ccccc4)C(C)=C1C3(C)C)[C@]1(OC(C)=O)CO[C@@H]1C[C@@H]2O; d(pY) = N[C@H](Cc1ccc(OP(=O)(O)O)cc1)C(=O)O; Acetyl(2-naphthyl) = O=C(Cc1ccc2ccccc2c1)*

Test: general procedure: Fmoc solid-phase peptide synthesis; 2-chlorotrityl chloride resin (100~200 mesh and 0.3~0.8 mmol/g); DIPEA/HBTU
Details: for conjugation yield: conjugation step; for isolated yield: whole synthesis

Substance	conjugation yield [%]	further results
2-(Naphthalen-2-yl)acetyl-(D)-Phe-(D)-Phe-(D)-Lys(NBD)-(D)-Tyr phosphate	48	–
2-(Naphthalen-2-yl)acetyl-(D)-Phe-(D)-Phe-(D)-Lys-(D)-Tyr phosphate	–	isolated yield: 57%
2-(Naphthalen-2-yl)acetyl-(L)-Phe-(L)-Phe-(L)-Lys-(L)-Tyr phosphate	–	isolated yield (total yield): 64%
{Acetyl(2-naphthyl)}-[dF][dF][dK](Paclitaxel(2'-O-succinyl))[d(pY)]-OH (SMILES CC(=O)O[C@H]1C(=O)[C@@]2(C)[C@H]([C@H](OC(=O)c3ccccc3)[C@]3(O)C[C@H](OC(=O)[C@H](OC(=O)CCC(=O)NCCCC[C@@H](NC(=O)[C@@H](Cc4ccccc4)NC(=O)[C@@H](Cc4ccccc4)NC(=O)Cc4ccc5ccccc5c4)C(=O)N[C@H](Cc4ccc(OP(=O)(O)O)cc4)C(=O)O)[C@@H](NC(=O)c4ccccc4)c4ccccc4)C(C)=C1C3(C)C)[C@]1(OC(C)=O)CO[C@@H]1C[C@@H]2O)	37	–
